This is one part of the list. Only hits are listed; about a third recur on repeated control peptides.
Experiments:
Experiment in all cases: PRISMA enrichment of interactor (LFQ) in peptide spot vs all other peptide spots (log2 fold change); higher = stronger / more specific binding of the interactor to the peptide
AP2M1, Q96CW1 = target: AP2M1, Q96CW1
Description: (§1)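 PRISMA: 15-aa overlapping tiles (offset 8 aa) of 60 microproteins, plus SOS1/GLUT1 control peptides, were spot-synthesized on cellulose membranes in triplicate. Membranes were incubated with benzonase-treated HEK293T lysate, and bound proteins were identified by LC-MS/MS with LFQ. Enrichment is the log2 fold change of each protein in one spot versus all other spots. Only interactors passing the significance cutoff are listed.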

By UniProt entry, the sequences of proteins in these tests, tags left out.
HSPB1, P04792, UniProt P04792, whole entry: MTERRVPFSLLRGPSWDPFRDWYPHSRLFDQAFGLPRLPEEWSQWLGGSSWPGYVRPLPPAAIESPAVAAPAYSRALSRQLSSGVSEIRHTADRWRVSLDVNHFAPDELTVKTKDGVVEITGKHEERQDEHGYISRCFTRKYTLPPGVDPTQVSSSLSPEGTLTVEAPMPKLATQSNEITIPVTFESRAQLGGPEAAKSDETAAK
ERVK-16, P61578, UniProt P61578, whole entry: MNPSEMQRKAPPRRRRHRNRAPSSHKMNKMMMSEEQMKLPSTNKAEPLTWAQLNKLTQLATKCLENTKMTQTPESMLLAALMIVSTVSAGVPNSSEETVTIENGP
EP300, Q09472, UniProt Q09472, whole entry: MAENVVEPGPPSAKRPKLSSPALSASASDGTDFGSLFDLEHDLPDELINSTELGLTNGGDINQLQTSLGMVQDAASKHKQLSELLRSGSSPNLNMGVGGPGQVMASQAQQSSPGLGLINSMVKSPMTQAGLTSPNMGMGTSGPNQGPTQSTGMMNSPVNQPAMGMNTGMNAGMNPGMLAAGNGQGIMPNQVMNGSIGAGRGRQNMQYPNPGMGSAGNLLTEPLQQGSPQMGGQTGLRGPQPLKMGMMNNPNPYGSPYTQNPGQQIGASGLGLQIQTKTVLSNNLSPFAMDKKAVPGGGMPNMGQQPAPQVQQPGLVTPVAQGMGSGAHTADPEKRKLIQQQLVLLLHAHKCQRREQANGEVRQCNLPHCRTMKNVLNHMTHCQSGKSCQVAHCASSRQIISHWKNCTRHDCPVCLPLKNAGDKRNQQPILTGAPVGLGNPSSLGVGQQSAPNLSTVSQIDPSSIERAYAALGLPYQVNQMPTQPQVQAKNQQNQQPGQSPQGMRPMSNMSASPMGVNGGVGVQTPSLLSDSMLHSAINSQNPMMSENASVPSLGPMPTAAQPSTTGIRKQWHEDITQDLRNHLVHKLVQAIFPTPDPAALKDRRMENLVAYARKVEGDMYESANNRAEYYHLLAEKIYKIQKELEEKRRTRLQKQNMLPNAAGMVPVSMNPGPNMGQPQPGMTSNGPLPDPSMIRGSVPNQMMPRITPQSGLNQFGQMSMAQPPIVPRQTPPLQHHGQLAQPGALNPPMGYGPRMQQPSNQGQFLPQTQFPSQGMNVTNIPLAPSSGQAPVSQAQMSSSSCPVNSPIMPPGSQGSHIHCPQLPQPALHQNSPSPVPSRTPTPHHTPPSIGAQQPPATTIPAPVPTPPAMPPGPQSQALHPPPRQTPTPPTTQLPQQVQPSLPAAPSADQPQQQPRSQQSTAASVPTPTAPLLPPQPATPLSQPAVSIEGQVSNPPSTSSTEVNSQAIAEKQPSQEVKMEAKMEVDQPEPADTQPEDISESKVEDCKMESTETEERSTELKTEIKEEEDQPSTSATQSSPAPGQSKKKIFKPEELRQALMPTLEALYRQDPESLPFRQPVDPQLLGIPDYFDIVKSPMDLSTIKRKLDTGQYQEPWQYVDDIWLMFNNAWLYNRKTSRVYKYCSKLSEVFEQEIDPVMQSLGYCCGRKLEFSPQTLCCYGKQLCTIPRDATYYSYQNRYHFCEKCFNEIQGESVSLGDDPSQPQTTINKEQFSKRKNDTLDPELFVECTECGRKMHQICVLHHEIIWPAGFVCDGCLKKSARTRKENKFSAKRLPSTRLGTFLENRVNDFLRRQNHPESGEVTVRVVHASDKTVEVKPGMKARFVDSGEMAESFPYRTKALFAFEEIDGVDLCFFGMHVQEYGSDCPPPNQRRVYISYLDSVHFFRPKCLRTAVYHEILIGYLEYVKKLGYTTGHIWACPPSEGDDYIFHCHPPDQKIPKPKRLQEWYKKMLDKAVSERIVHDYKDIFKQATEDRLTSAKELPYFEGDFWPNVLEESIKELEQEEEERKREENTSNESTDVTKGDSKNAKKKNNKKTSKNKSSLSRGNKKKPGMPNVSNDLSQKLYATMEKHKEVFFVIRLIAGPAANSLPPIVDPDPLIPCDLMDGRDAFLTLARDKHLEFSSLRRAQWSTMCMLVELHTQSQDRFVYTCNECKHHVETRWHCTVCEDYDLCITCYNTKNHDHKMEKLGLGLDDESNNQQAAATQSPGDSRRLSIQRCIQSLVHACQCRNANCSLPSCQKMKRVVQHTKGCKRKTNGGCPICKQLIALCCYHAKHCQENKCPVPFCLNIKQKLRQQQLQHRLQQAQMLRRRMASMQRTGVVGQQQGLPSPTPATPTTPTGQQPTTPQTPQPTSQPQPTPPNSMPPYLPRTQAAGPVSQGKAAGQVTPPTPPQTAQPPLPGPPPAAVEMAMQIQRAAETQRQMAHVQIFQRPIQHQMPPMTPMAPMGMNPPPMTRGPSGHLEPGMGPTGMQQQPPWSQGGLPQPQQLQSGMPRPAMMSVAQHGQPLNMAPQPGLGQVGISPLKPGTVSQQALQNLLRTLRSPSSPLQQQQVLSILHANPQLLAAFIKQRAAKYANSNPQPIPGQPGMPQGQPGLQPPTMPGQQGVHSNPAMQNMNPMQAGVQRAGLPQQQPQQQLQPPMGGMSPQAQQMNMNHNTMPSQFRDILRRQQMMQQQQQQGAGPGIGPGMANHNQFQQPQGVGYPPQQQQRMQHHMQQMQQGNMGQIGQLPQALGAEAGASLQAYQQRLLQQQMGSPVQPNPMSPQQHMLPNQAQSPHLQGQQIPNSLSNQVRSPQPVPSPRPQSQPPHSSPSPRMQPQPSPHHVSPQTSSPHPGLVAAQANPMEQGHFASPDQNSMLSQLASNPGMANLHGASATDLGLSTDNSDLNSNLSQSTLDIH
TRRAP, Q9Y4A5, UniProt Q9Y4A5, whole entry: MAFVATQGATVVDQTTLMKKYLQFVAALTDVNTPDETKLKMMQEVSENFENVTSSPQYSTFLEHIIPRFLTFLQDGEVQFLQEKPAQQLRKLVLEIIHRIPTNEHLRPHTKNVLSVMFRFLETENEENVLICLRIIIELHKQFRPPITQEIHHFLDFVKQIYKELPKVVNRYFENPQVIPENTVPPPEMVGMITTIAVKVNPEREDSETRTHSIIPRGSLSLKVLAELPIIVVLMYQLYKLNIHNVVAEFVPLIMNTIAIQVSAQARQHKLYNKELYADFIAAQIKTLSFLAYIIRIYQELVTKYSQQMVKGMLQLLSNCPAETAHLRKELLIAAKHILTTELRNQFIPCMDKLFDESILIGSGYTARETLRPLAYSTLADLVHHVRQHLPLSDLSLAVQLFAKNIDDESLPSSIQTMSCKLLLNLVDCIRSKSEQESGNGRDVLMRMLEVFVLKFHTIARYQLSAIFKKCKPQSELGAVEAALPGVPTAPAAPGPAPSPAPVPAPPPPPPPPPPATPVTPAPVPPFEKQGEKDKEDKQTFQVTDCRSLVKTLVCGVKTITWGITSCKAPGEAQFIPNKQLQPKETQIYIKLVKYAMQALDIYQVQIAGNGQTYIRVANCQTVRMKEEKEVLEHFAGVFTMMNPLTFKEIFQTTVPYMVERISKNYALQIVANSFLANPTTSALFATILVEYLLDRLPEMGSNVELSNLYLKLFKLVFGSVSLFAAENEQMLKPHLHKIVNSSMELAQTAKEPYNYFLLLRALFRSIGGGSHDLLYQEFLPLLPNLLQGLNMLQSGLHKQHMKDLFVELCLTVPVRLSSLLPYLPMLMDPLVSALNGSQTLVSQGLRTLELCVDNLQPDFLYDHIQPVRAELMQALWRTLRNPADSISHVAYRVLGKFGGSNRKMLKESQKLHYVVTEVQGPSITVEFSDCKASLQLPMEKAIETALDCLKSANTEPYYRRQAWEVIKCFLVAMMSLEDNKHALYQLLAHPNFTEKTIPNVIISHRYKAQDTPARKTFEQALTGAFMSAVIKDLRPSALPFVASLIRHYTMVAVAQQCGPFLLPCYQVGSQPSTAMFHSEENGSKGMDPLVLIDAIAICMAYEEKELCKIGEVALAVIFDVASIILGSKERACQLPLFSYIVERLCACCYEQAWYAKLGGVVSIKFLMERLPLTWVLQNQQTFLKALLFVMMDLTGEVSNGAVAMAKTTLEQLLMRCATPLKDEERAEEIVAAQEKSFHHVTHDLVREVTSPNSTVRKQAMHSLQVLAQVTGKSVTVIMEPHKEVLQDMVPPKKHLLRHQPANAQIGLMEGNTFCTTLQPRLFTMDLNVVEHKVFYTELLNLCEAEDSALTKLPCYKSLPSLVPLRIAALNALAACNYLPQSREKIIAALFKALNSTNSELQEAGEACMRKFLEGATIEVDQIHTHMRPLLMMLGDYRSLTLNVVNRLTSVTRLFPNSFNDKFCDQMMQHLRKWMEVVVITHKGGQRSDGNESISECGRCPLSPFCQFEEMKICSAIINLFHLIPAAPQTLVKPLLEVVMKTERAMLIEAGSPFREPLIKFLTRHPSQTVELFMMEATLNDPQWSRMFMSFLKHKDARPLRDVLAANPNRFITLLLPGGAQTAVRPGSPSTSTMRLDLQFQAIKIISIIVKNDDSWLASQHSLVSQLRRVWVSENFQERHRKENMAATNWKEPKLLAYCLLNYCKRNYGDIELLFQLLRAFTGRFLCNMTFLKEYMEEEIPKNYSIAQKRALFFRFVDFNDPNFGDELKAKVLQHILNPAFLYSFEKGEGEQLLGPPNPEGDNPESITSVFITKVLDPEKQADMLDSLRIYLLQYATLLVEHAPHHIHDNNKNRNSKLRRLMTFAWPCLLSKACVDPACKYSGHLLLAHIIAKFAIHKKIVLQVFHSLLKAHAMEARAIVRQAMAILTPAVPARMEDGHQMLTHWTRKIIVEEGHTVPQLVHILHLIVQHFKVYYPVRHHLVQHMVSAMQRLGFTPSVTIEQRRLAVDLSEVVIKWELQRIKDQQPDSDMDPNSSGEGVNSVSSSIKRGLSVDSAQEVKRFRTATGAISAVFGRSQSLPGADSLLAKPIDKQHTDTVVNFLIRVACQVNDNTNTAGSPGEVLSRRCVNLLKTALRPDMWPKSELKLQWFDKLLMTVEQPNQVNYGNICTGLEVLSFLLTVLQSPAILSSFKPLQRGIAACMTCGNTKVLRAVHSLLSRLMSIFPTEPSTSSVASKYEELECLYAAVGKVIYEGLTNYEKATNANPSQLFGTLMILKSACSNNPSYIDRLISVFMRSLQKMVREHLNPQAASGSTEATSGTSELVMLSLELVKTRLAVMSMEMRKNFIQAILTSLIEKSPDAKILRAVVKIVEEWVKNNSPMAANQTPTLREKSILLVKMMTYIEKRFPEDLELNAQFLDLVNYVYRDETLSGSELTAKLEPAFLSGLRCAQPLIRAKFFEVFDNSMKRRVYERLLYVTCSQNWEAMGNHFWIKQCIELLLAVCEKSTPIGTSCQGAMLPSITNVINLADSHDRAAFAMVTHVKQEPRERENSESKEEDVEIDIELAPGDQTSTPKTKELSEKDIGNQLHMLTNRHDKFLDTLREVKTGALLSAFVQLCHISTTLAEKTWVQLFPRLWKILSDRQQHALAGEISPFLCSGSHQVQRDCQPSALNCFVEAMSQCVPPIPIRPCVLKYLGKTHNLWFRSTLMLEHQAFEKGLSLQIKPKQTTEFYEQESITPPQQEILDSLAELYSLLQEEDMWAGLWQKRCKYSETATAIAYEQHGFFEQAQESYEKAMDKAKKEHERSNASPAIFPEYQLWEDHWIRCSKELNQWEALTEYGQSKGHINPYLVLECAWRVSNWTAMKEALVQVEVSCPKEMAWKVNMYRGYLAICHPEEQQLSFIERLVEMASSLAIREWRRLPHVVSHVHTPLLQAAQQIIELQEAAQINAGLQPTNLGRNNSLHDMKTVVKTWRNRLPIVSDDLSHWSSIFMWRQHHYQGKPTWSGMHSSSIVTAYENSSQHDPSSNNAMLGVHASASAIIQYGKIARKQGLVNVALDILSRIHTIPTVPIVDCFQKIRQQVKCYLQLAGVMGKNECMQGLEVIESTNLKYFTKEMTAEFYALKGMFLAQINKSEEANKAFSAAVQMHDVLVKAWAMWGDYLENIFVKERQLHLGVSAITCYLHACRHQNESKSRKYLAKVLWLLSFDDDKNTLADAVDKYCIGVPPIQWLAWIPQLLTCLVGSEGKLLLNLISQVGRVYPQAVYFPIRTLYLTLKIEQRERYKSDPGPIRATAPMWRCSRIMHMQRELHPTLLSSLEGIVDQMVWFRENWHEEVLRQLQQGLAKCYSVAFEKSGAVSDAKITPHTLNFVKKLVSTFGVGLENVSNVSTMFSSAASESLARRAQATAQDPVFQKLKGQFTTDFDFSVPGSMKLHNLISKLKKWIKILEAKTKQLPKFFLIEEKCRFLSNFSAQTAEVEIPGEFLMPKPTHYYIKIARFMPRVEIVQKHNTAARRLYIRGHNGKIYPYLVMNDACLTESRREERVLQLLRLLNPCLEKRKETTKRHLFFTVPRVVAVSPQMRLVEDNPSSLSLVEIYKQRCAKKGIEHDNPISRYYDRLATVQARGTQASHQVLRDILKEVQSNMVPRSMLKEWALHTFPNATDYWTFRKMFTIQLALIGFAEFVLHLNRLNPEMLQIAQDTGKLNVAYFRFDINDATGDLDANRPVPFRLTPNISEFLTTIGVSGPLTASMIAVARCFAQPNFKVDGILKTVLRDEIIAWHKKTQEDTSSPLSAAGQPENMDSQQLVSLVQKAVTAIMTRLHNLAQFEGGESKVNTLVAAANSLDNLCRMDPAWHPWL

GTF3C5, Q9Y5Q8 = target: GTF3C5, Q9Y5Q8
Description: as §1

IWS1, Q96ST2 = target: IWS1, Q96ST2
Description: as §1

MRPL3, P09001 = target: MRPL3, P09001
Description: as §1

MRPS5, P82675 = target: MRPS5, P82675
Description: as §1

[1] = substrate: PNP, P00491
Description: as §1

PRDX2, P32119 = target: PRDX2, P32119
Description: as §1

SBDS, Q9Y3A5 = target: SBDS, Q9Y3A5
Description: as §1

SFSWAP, Q12872 = target: SFSWAP, Q12872
Description: as §1

BCOR, Q6W2J9 = target: BCOR, Q6W2J9
Description: as §1

HSPB1, P04792 = target: HSPB1, P04792
Description: as §1

LSM4, Q9Y4Z0 = target: LSM4, Q9Y4Z0
Description: as §1

MAP7D3, Q8IWC1 = target: MAP7D3, Q8IWC1
Description: as §1

MPDU1, O75352 = target: MPDU1, O75352
Description: as §1

NUP50, Q9UKX7 = target: NUP50, Q9UKX7
Description: as §1

PTPN1, P18031 = target: PTPN1, P18031
Description: as §1

RAB18, Q9NP72 = target: RAB18, Q9NP72
Description: as §1

RFC4, P35249 = target: RFC4, P35249
Description: as §1

SGTA, O43765 = target: SGTA, O43765
Description: as §1

SURF4, O15260 = target: SURF4, O15260
Description: as §1

TAF15, Q92804 = target: TAF15, Q92804
Description: as §1

TMEM256-PLSCR3 = target: TMEM256-PLSCR3
Description: as §1

TOMM34, Q15785 = target: TOMM34, Q15785
Description: as §1

AP2A1, O95782 = target: AP2A1, O95782
Description: as §1

ERCC6L2, Q5T890 = target: ERCC6L2, Q5T890
Description: as §1

ERVK-16, P61578 = target: ERVK-16, P61578
Description: as §1

LANCL1, O43813 = target: LANCL1, O43813
Description: as §1

RAB11FIP1, Q6WKZ4 = target: RAB11FIP1, Q6WKZ4
Description: as §1

pk = target: pk
Description: as §1

AP2A2, O94973 = target: AP2A2, O94973
Description: as §1

C19orf47, Q8N9M1 = target: C19orf47, Q8N9M1
Description: as §1

CHAF1B, Q13112 = target: CHAF1B, Q13112
Description: as §1

EP300, Q09472 = target: EP300, Q09472
Description: as §1

FANCI, Q9NVI1 = target: FANCI, Q9NVI1
Description: as §1

GSTP1, P09211 = target: GSTP1, P09211
Description: as §1

ISYNA1, Q9NPH2 = target: ISYNA1, Q9NPH2
Description: as §1

MRPL15, Q9P015 = target: MRPL15, Q9P015
Description: as §1

MRTO4, Q9UKD2 = target: MRTO4, Q9UKD2
Description: as §1

POLR2C, P19387 = target: POLR2C, P19387
Description: as §1

RRP12, Q5JTH9 = target: RRP12, Q5JTH9
Description: as §1

SCFD1, Q8WVM8 = target: SCFD1, Q8WVM8
Description: as §1

SNRPA1, P09661 = target: SNRPA1, P09661
Description: as §1

SPCS2, Q15005 = target: SPCS2, Q15005
Description: as §1

SPTY2D1, Q68D10 = target: SPTY2D1, Q68D10
Description: as §1

SRRT, Q9BXP5 = target: SRRT, Q9BXP5
Description: as §1

SRSF10, O75494 = target: SRSF10, O75494
Description: as §1

TRRAP, Q9Y4A5 = target: TRRAP, Q9Y4A5
Description: as §1

YY1, P25490 = target: YY1, P25490
Description: as §1

## LLHYDPVVKQRVLFV [MRPL33]
AP2M1, Q96CW1
  PRISMA enrichment of interactor (log2): 5.54
GTF3C5, Q9Y5Q8
  PRISMA enrichment of interactor (log2): 4.65
IWS1, Q96ST2
  PRISMA enrichment of interactor (log2): 5.44
MRPL3, P09001
  PRISMA enrichment of interactor (log2): 6.32
MRPS5, P82675
  PRISMA enrichment of interactor (log2): 8.14
[1]
  PRISMA enrichment of interactor (log2): 6.84
PRDX2, P32119
  PRISMA enrichment of interactor (log2): 4.5
SBDS, Q9Y3A5
  PRISMA enrichment of interactor (log2): 4.92
SFSWAP, Q12872
  PRISMA enrichment of interactor (log2): 5.12

## VHLGTYFLQRSAKQS [MKKS_2]
AP2M1, Q96CW1
  PRISMA enrichment of interactor (log2): 6.12
BCOR, Q6W2J9
  PRISMA enrichment of interactor (log2): 5.05
HSPB1, P04792
  PRISMA enrichment of interactor (log2): 4.21
LSM4, Q9Y4Z0
  PRISMA enrichment of interactor (log2): 4.21
MAP7D3, Q8IWC1
  PRISMA enrichment of interactor (log2): 4.96
MPDU1, O75352
  PRISMA enrichment of interactor (log2): 3.83
NUP50, Q9UKX7
  PRISMA enrichment of interactor (log2): 4.26
PTPN1, P18031
  PRISMA enrichment of interactor (log2): 5.92
RAB18, Q9NP72
  PRISMA enrichment of interactor (log2): 3.67
RFC4, P35249
  PRISMA enrichment of interactor (log2): 5.1
SGTA, O43765
  PRISMA enrichment of interactor (log2): 4.76
SURF4, O15260
  PRISMA enrichment of interactor (log2): 4.91
TAF15, Q92804
  PRISMA enrichment of interactor (log2): 5.95
TMEM256-PLSCR3
  PRISMA enrichment of interactor (log2): 4.11
TOMM34, Q15785
  PRISMA enrichment of interactor (log2): 6.12

## FEISCDVFQSRCKEH [CRNDE]
AP2A1, O95782
  PRISMA enrichment of interactor (log2): 5.3
ERCC6L2, Q5T890
  PRISMA enrichment of interactor (log2): 9.34
ERVK-16, P61578
  PRISMA enrichment of interactor (log2): 9.08
LANCL1, O43813
  PRISMA enrichment of interactor (log2): 4.71
RAB11FIP1, Q6WKZ4
  PRISMA enrichment of interactor (log2): 4.98
pk
  PRISMA enrichment of interactor (log2): 4.88

## GIQLQQLRAFHVTPG [EBAG9]
AP2A2, O94973
  PRISMA enrichment of interactor (log2): 5.82
C19orf47, Q8N9M1
  PRISMA enrichment of interactor (log2): 4.7
CHAF1B, Q13112
  PRISMA enrichment of interactor (log2): 4.11
EP300, Q09472
  PRISMA enrichment of interactor (log2): 5.22
FANCI, Q9NVI1
  PRISMA enrichment of interactor (log2): 6.52
GSTP1, P09211
  PRISMA enrichment of interactor (log2): 8.17
ISYNA1, Q9NPH2
  PRISMA enrichment of interactor (log2): 4.41
MRPL15, Q9P015
  PRISMA enrichment of interactor (log2): 5.46
MRTO4, Q9UKD2
  PRISMA enrichment of interactor (log2): 4.38
POLR2C, P19387
  PRISMA enrichment of interactor (log2): 4.43
RRP12, Q5JTH9
  PRISMA enrichment of interactor (log2): 5.42
SCFD1, Q8WVM8
  PRISMA enrichment of interactor (log2): 6.47
SNRPA1, P09661
  PRISMA enrichment of interactor (log2): 9.66
SPCS2, Q15005
  PRISMA enrichment of interactor (log2): 5.1
SPTY2D1, Q68D10
  PRISMA enrichment of interactor (log2): 5.63
SRRT, Q9BXP5
  PRISMA enrichment of interactor (log2): 8.2
SRSF10, O75494
  PRISMA enrichment of interactor (log2): 8.68
TRRAP, Q9Y4A5
  PRISMA enrichment of interactor (log2): 5.03
YY1, P25490
  PRISMA enrichment of interactor (log2): 4.2

Source: the supplement of paper PMC10032668
